Results are given in words; binding and its absence hold for the method and conditions named. In cells and extracts the contact can be indirect. Some results given as binding are weak or reduced against the parent protein; the word gives no strength. Tags and fused reporters may be left off the sequences shown.

The source of these data is PMC10101649.

The assay addresses T1, CDPK16-nLUC (Arabidopsis) (UniProt Q7XJR9).
T1 sequence: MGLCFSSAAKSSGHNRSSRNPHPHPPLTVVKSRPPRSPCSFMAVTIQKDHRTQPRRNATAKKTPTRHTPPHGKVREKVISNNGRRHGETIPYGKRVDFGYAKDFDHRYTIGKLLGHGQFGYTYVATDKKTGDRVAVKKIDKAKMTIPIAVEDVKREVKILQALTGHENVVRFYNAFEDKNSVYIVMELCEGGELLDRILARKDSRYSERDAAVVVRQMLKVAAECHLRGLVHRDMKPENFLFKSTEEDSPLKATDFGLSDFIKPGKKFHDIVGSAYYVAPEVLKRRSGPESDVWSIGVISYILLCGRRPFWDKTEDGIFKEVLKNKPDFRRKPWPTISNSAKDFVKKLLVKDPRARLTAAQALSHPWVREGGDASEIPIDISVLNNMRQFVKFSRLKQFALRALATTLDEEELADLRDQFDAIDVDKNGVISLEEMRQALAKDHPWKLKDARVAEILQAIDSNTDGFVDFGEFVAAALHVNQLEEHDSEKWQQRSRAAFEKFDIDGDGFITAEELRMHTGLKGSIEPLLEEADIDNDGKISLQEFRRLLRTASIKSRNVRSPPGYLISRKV
Description: split reporter; luciferase complementation imaging (LCI): CDPK16-nLUC and cLUC-ADF7 co-infiltrated into N. benthamiana leaves, 48 to 60 h at room temperature, LUC activity by cooled CCD; empty vector as control.

B1: cLUC-ADF7 (protein, UniProt Q67ZM4 1-137)
chain: MANAASGMAVEDECKLKFLELKSKRNYRFIIFRIDGQQVVVEKLGNPDETYDDFTASLPANECRYAVFDFDFITDENCQKSKIFFIAWSPDSSRVRMKMVYASSKDRFKRELDGIQVELQATDPSEMSFDIIKSRAL
Take B1: the binding result was “binds”.
